Results from one PubChem assay

Source: PubChem BioAssay AID1159506 (NCATS, 2015).

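Luminescence from an EWS-FLI1 target-promoter (NR0B1) reporter, set against a CMV-promoter reporter, two days after silencing single genes in TC32 Ewing sarcoma cells.
Each siRNA was applied at 20 nM.
A z-score of the log NR0B1-over-CMV signal, less the median of siRNAs with the same seed; more negative means a stronger specific loss of the NR0B1 reporter.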

This is part of the screen; most of the strongest results are not listed here.
Sequences are the guide (antisense) strand, without overhang.

UUUGUUACCUUGCUCCGGG against VSTM2B read seed-corrected z-score -0.0181. For UCACGGAUUCAGAAUACUU against TPM2 the result was seed-corrected z-score -0.6186. UUAUGUUCUCAGUAGCUCC against HOXD4 read seed-corrected z-score -0.02799. UCGCUUUUUACUUCAUACC against FBN2 gave seed-corrected z-score -0.2484. With UUUACGAAGACGAACACUG against RPF1 the assay gave seed-corrected z-score -0.6927. With UCGUCUAUCAUUCUGCAGC against PHACTR1 the assay gave seed-corrected z-score 0.4784. AGACCAUUUAUCAUAGCCC against SHROOM3 gave seed-corrected z-score 0.2473.

With UACCGGGUCACAUUUAGGA against ZMYND19 the assay gave seed-corrected z-score 0.07959. For UUCGAAUUGCUAUUAGUUC against AGO4 the result was seed-corrected z-score 1.343. UUCUUUACCAUCUCGUCCC against ATP2B2 read seed-corrected z-score -0.537. For UUCAGGUCCUGUUCGGUUG against TARDBP the result was seed-corrected z-score -1.045. UACUCCUAAAGAUCCAUAG against HSPA12A read seed-corrected z-score 1.495. UAGCGGAUAUUCUUGGUGC against SLC9A4 gave seed-corrected z-score -0.2329. For AUUUCAACUAGAAAAGAUG against AK4 the result was seed-corrected z-score 0.5434.

With AGUCUUCAGAUCUCCAUCC against CLEC3A the assay gave seed-corrected z-score -0.07451. ACUGGUUUAAGAAUUCCUC against MAPK7 gave seed-corrected z-score 1.565. For UAAAUCAAACCGGAAAUUC against HIST1H4B the result was seed-corrected z-score 0.427. AAUGUGAUGACGGUACCUG against PCDHA7 gave seed-corrected z-score 0.8126. ACACCUACUAUUGCUACGG against UBA5 gave seed-corrected z-score 0.3565. UUGGUAUUCAGUUCGAUGA against STARD3 read seed-corrected z-score 1.657. UGCUCUACCACUUCGUUCC against ZNF821 read seed-corrected z-score 1.199.

AAUAUCGUCGGAAUCAUCG against IQCE gave seed-corrected z-score 0.5632. For UGGACGAUGAGGUCUGUGG against PCYT2 the result was seed-corrected z-score -1.264. AAUGUUGUUGCCUCGCUCC against RAD54L2 read seed-corrected z-score -1.218. Result for UUUUCGUGUUUUGAUGUCG against RNASEL was seed-corrected z-score 0.4716. For UAAAACAUAAGCUCAGUGU against FOXD4L4 the result was seed-corrected z-score -0.3295. AAAGUCUUUUGUUGGAACC against PSMA3 gave seed-corrected z-score 0.03288. UCCGAUGUUAGAGUGAUCC against PDE1C read seed-corrected z-score -0.4758.

Result for CCAGUGUCACGGGAGACUU against HLA-DQA1 was seed-corrected z-score 0.5522. With UGUCUCAUACUUGAAAGAG against INHA the assay gave seed-corrected z-score 0.4297. With UGCGGUUCAUCUUGAAGGC against SETBP1 the assay gave seed-corrected z-score 0.0487. For AUUCUUACCAUUUCGUAAG against WDR72 the result was seed-corrected z-score 0.8962. UUCCGGUAUUCUGUGCUCC against EOGT gave seed-corrected z-score 0.08415. With UAAGUAGAAAGCCUGUAGC against UBE2G1 the assay gave seed-corrected z-score -0.3016. Result for UUAAUGAUCUGGUUGACCU against ELFN2 was seed-corrected z-score 0.3024.

UUACCUCAAAAAGAGUUGC against PPP4R3B read seed-corrected z-score 0.9121.

For reference, 2 entries once more:

| Sequence | target gene | seed-corrected z-score |
|---|---|---|
| `AAUGUUGUUGCCUCGCUCC` | RAD54L2 | -1.218 |
| `UACCGGGUCACAUUUAGGA` | ZMYND19 | 0.07959 |